In patent publication US10357516B2 (priority 2008, dated 2019):

Test system: RBC surface
Assay: Anti-acridine antibody binding capacity (ABC), immune flow cytometric assay
Format: cell-based, human

## O=C(CCNc1c2ccccc2nc2ccccc12)OCCN(CCCl)CCCl [S-303, β-alanine, N-(acridin-9-yl), 2-[bis(2-chloroethyl)amino]ethyl ester]
RBC treated with 2 mM acidic GSH
  antibody binding capacity: 123,714±5123 ABC
RBC treated with 20 mM GSH neutralized with 1 equivalent of NaOH and 0.2 mM S-303, several RBC preparations
  antibody binding capacity: approximately 39,000 per red cell
RBC treated with 20 mM GSH neutralized with 2 equivalents of NaOH
  antibody binding capacity: 18,407±1195 ABC
